Earlier results in US6845328B2, “Screening methods using the crystal structure of ribosomal protein L11/GTPase activating region rRNA complex” (University of Utah Research Foundation, priority 1999, dated 2005).
At least one structure is not confirmed: it was looked up by name or label, or the drawing left a doubt.

Tested on: E. coli S30 lysate and luciferase mRNA
Conditions: bioluminescence; cited from earlier work

NC[C@H]1O[C@H](O[C@H]2[C@H](O)[C@@H](O[C@H]3O[C@H](CO)[C@@H](O)[C@H](N)[C@H]3O)[C@H](N)C[C@@H]2N)[C@H](O)[C@@H](O)[C@@H]1O [kanamycin]
yield of active luciferase compared to the control: decrease in yield of active luciferase
